Results reported in patent publication US11767298B2, “Substituted benzimidazoles as inhibitors of transforming growth factor-β kinase” (Duke University, priority 2016, dated 2023).
Some of these results come from one statement about several compounds together.

System: P. berghei
Assay: Liver stage parasite load, luciferase-expressing P. berghei in HepG2 cells
Format: cell-based, Plasmodium berghei ANKA
Details: HepG2 host cells, listed as Compound 1
Method: Cell-based anti-Plasmodium assays. For liver stage assays, 15,000 HepG2 or 8,000 Huh7 cells/well were added to 384-well microtiter plates using a multichannel pipette (Rainin). After 2 hours at 37° C., compounds (0-100 μM) were added to cells in duplicate or triplicate in a final concentration of 1% DMSO. DMSO was used as the negative control. Following compound incubation at 37° C. for ˜1 hr, harvested luciferase-expressing P. berghei ANKA sporozoites were added to the plates at a density of 3,000 sporozoites/well. P. berghei ANKA sporozoites were obtained from harvesting the salivary glands of infected A. stephensi mosquitoes. […] After ˜45 hours at 37° C., liver cell viability was assessed using CellTiter-Fluor (Promega) and then parasite load was determined using Bright-Glo (Promega). The relative fluorescence and luminescence signal intensity of each well was evaluated with an EnVision System. The luminescence signal in the presence of compounds was normalized to the negative control (DMSO). […]
Anti-Plasmodium activity was evaluated in the parasite's liver stage using a previously reported high-throughput assay. […]
Specifically, their ability to inhibit P. berghei infection in two human hepatoma cell lines (HepG2 and Huh7) as well as cytotoxicity against HepG2 and Huh7 cells was determined as described above. […]

In the case of CCCn1c(NC(=O)c2cccc(C(N)=O)c2)nc2ccccc21 [HS-206 (1), (E)-N-(1-Propyl-1,3-dihydro-2H-benzo[d]imidazol-2-ylidene)isophthalamide], the IC50 is reported as 5 to 7 µM.
